Source: PubChem BioAssay AID504444 (National Center for Advancing Translational Sciences (NCATS), 2011)
“And” between values parts separate entries of the source, which are not always exact repeats. Equal entries are not always repeated. Screen size: about 360,000 compounds; about 7,500 (2.1%) were called active. Inconclusive means that the source gave no clear call. Such entries were picked first, then a sample of the others. Calls come from the whole dose curve; as a rule, active = well fitted inhibition curve with a large enough effect; inconclusive = small, poorly fitted or top-dose-only effect, or effect the other way; inactive = flat fitted curve, though single readings scatter. Potencies beside an inconclusive call are fits to weak or partial responses and may not hold up.

assay: Nrf2 qHTS screen for inhibitors; details: A549 ARE-Fluc reporter, luciferase luminescence, 18-24 h; activity change, negative = inhibition: at 46 µM (top of the series); note: nearly all actives have a fitted effect of over 60% in size
Method in brief: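 Cells were seeded and rested 2 h, then exposed to compounds for 18-24 h. CellTiter-Fluor was read first as a viability measure. BugLite was added 15 min before the final luminescent read of ARE-luciferase activity in A549 cells.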
% is set by controls: 0 for no effect and ±100 for the full control effect; potency is the fitted concentration of half-maximal effect.

Row | SMILES | Potency | activity change, negative = inhibition
1 | Cc1ccc(OCC(=O)N/N=C/c2cccc3cccnc23)cc1 | inconclusive: 20.6 µM [falling, single point] | –
2 | Cc1oc(-c2ccc(Cl)cc2)nc1CSCC(=O)NC1CCN(Cc2ccccc2)CC1 | inconclusive: 11.6 µM [falling, partial curve, poor fit] | –
3 | Cc1ccc(S(=O)(=O)Nc2cc(C)c(O)cc2C)cc1 | inconclusive: 3.26 µM [falling, single point] | –
4 | COc1ccc(C2=NS(=O)(=O)N(C)C(C(=O)Nc3ccc(C(C)=O)cc3)=C2)cc1OC | inconclusive: 23.1 µM [falling, single point] | –
5 | O=C(CSc1nc(=O)n2cc(Cl)ccc2n1)Nc1ccc2c(c1)OCCO2 | – | inactive: -23%
6 | Cc1ccccc1Nc1nn2c(=O)c3ccc(C(=O)NCC(C)c4ccccc4)cc3nc2s1 (stereo unspecified) | – | inactive: -26.7%
7 | C=CCN1C2CCCC1CC(NC(=O)Nc1cc(C)cc(C)c1)C2 (stereo unspecified) | inconclusive: 20.6 µM [activator, single point] | –
8 | CC(=O)c1cc(C(=O)Nc2ccc3ccccc3c2)c(C)o1 | inconclusive: 6.51 µM [activator, single point] | –
9 | FC(F)(F)c1cc(-c2ccccc2)nc(-n2cncn2)n1 | inconclusive: 10.3 µM [falling, partial curve, poor fit] | –
10 | O=c1c2[nH]c3ccccc3c2ncn1CCC1=CCCCC1 | – | inactive: 29.9%
11 | O=C(CSc1nc2ccccc2c(=O)[nH]1)Nc1ccc([N+](=O)[O-])cc1 | active: 16.4 µM | –
12 | CC1=C(c2ccc(C(C)C)cc2)S(=O)(=O)N=C1N1CCN(c2ccccc2F)CC1 | – | inactive: -29.4%
13 | CC1Sc2n(c3ccccc3[n+]2C)N=C1c1ccccc1 (stereo unspecified) | active: 11.6 µM | –
14 | Cc1ccc(CNc2ccc3c(c2)nc(C)n3C)cc1 | inconclusive: 25.9 µM [activator, single point] | –
15 | CN(C)/C=C/C(=O)c1cnc(-c2cccc(Cl)c2)s1 | – | inactive: 15.2%
16 | CCOc1ccc(NC(=S)N2CCN(C/C=C/c3ccccc3)CC2)cc1 | inconclusive: 6.51 µM [activator, single point] | –
17 | CC(C(=O)OCC(=O)Nc1ccc2c(c1)OCO2)N1C(=O)c2ccccc2C1=O (stereo unspecified) | inconclusive: 29.1 µM [activator, single point] | –
18 | O=C(CSc1nnc2ccccn12)Nc1cccc(-c2nc3ccccc3s2)c1 | inconclusive: 2.31 µM [activator, partial curve, poor fit] | –
19 | CCOc1ccccc1NC(=O)Cn1nnc(C(=O)NCc2cccs2)c1N | inconclusive: 1.84 µM [activator, full curve] and inconclusive: 3.26 µM [activator, single point] | –
20 | O=C(/C=C\c1ccco1)NC(=S)Nc1ccccc1O | – | inactive: 9.6%
21 | O=C(NCc1ccc(N2CCCC2=O)cc1)c1cc(COc2c(F)cccc2F)on1 | – | inactive: -19.6%
22 | CC(C)(C)N=C1NN=C(c2cc3ccccc3o2)CS1 | inconclusive: 0.92 µM [activator, full curve, poor fit] | –

Row | SMILES | Potency | activity change, negative = inhibition
23 | CCN(CC)NC(=O)Nc1ccccc1 | inconclusive: 29.1 µM [activator, single point] | –
24 | CC(=O)N1c2ccccc2C(=O)C1N1CCN(c2ccc(Cl)cc2)CC1 (stereo unspecified) | inconclusive: 3.66 µM [activator, full curve, poor fit] | –
25 | O=C(OCCOc1ccccc1)c1cccc(S(=O)(=O)N2CCOCC2)c1 | – | inactive: 21.7%
26 | Cc1ccc(NC(=O)COC(=O)C2CC2)cc1S(=O)(=O)N1CCOCC1 | – | inactive: 8.96%
27 | CN(C)S(=O)(=O)c1ccc(Cl)c(NC(=O)CN2CCc3ccccc3C2)c1 | inconclusive: 13 µM [falling, partial curve] | –
28 | Cc1cc(=O)[nH]c(S/C=C/c2ccccc2)n1 | inconclusive: 5.17 µM [activator, full curve, poor fit] | –
29 | O=C(Nc1ccc2c(c1)CCCN2C(=O)c1cccs1)c1cccc(F)c1 | inconclusive: 14.6 µM [activator, partial curve] | –
30 | COc1ccc(-n2c(Cc3cccn3C)nnc2SCC(=O)NCc2ccco2)cc1 | inconclusive: 1.16 µM [falling, full curve] | –
31 | O=C(O)c1ccc(-c2ccc(OS(=O)(=O)c3ccccc3F)cc2)cc1 | inconclusive: 4.11 µM [activator, full curve, poor fit] | –
32 | COc1cccc(-c2nn(C)c3sc(C(=O)N4CCOCC4)cc23)c1 | – | inactive: -13.6%
33 | CC(C)(C)c1ccc(C(=O)Nc2ccc(Cl)cc2)cc1 | inconclusive: 2.06 µM [activator, full curve, poor fit] | –
34 | CC(C)Oc1cc(C(=O)NC2CCCCC2)c2ccccc2n1 | inconclusive: 16.4 µM [falling, partial curve, poor fit] | –
35 | CC(C)Cn1nc(NC(=O)c2cccc(Cl)c2)c2cc3ccccc3nc21 | – | inactive: -17.6%
36 | O=C(Nc1ncccc1O)c1c(O)c2ccccc2[nH]c1=O | inconclusive: 25.9 µM [falling, single point] | –
37 | O=C(Nc1ccc(NC(=O)C2CCCCC2)nc1)c1ccco1 | inconclusive: 16.4 µM [activator, partial curve] | –
38 | CN(CC(=O)NCCc1ccccc1)Cc1ccco1 | inconclusive: 10.3 µM [activator, partial curve] | –
39 | N#CC1=C(N)NC(SCC(=O)c2ccc(Br)cc2)=C(C#N)C12CCCCC2 | inconclusive: 20.6 µM [falling, single point] | –
40 | CCc1ccc(NC(=O)CNC(=O)c2cn(-c3ccccc3OC)c(=O)c3ccccc23)cc1 | inconclusive: 20.6 µM [falling, single point] | –
41 | O=C1C[C@H](c2ccc(O)cc2)Oc2cc(O[C@@H]3O[C@H](CO)[C@@H](O)[C@H](O)[C@H]3O)cc(O[C@@H]3O[C@H](CO)[C@@H](O)[C@H](O)[C@H]3O)c21 | – | inactive: 5.53%
42 | CS(=O)(=O)N(Cc1ccccc1)c1ccc(C(=O)NC2CCCCC2O)cc1 (stereo unspecified) | inconclusive: 8.2 µM [activator, partial curve, poor fit] | –
43 | CN1CCN(C(CNC(=O)C(=O)Nc2ccc(Cl)cc2)c2cccnc2)CC1 (stereo unspecified) | inconclusive: 29.1 µM [falling, single point] | –
44 | O=C(Nc1ccccc1)c1cnc(-c2ccccc2)nc1-c1ccccc1 | inconclusive: 29.1 µM [falling, partial curve, poor fit] | –

Reprinted at random: four records from the list, in no set order.
Row | SMILES | Potency | activity change, negative = inhibition
33 | CC(C)(C)c1ccc(C(=O)Nc2ccc(Cl)cc2)cc1 | inconclusive: 2.06 µM [activator, full curve, poor fit] | –
27 | CN(C)S(=O)(=O)c1ccc(Cl)c(NC(=O)CN2CCc3ccccc3C2)c1 | inconclusive: 13 µM [falling, partial curve] | –
37 | O=C(Nc1ccc(NC(=O)C2CCCCC2)nc1)c1ccco1 | inconclusive: 16.4 µM [activator, partial curve] | –
35 | CC(C)Cn1nc(NC(=O)c2cccc(Cl)c2)c2cc3ccccc3nc21 | – | inactive: -17.6%

Some of these compounds in order of count of non-hydrogen atoms, smallest number first:
Row | SMILES | Potency | activity change, negative = inhibition
37 | O=C(Nc1ccc(NC(=O)C2CCCCC2)nc1)c1ccco1 | inconclusive: 16.4 µM [activator, partial curve] | –
24 | CC(=O)N1c2ccccc2C(=O)C1N1CCN(c2ccc(Cl)cc2)CC1 (stereo unspecified) | inconclusive: 3.66 µM [activator, full curve, poor fit] | –
43 | CN1CCN(C(CNC(=O)C(=O)Nc2ccc(Cl)cc2)c2cccnc2)CC1 (stereo unspecified) | inconclusive: 29.1 µM [falling, single point] | –

Going on with the list:

Row | SMILES | Potency | activity change, negative = inhibition
45 | COCCn1nnnc1C(c1ccccn1)N1CCN(c2cc(Cl)ccc2C)CC1 (stereo unspecified) | inconclusive: 11.6 µM [falling, partial curve] | –
46 | c1csc(-c2cn3ccc4ccccc4c3n2)c1 | inconclusive: 8.2 µM [activator, partial curve] | –
47 | O=C(/C=C/c1ccc(S(=O)(=O)N2CCOCC2)cc1)NCc1ccc(Cl)cc1 | inconclusive: 29.1 µM [falling, single point] | –
48 | CCOC(=O)c1cccnc1SCC(=O)N(CC)c1cccc(C)c1 | inconclusive: 20.6 µM [falling, partial curve, poor fit] | –
49 | C[C@H](CO)N1C[C@H](C)[C@@H](CN(C)CC2CCCCC2)Oc2c(NC(=O)CCC(F)(F)F)cccc2C1=O | active: 18.4 µM | –
50 | COc1ccc(OC)c(NC(=O)C(=O)c2cn(CC(=O)N3CCCC3)c3ccccc23)c1 | inconclusive: 5.8 µM [falling, full curve] | –
51 | COc1ccc(OCC(=O)Nc2ccc(-c3nc4cc(Cl)ccc4o3)cc2)cc1 | inconclusive: 1.3 µM [activator, full curve] | –
52 | Cn1c(=O)c(Sc2ccc(Cl)cc2)c(O)c2ccccc21 | inconclusive: 1.03 µM [activator, full curve, poor fit] | –
53 | COC(=O)C1=C(C)NC(C)=C(C(=O)OC)C1C(=O)OCC(=O)c1ccc(Br)cc1 | – | inactive: 1.02%
54 | COc1cc(/C=N/NC(=O)/C(=C/c2ccccc2)CCO)ccc1O | – | inactive: -23.7%
55 | Cc1ccc(Sc2ccc(N3CCCC(C(=O)Nc4ccc(F)c(Cl)c4)C3)nn2)cc1 (stereo unspecified) | inconclusive: 18.4 µM [falling, single point] | –
56 | CC(C)C[C@H](NC(=O)c1[nH]cnc1C(=O)Nc1ccccc1)C(=O)OC(C)(C)C | inconclusive: 18.4 µM [falling, single point] | –
57 | COc1ccc(CCNC(=O)CCCCn2c(=O)c3ccccc3n(Cc3cc(C)ccc3C)c2=O)cc1OC | – | inactive: -8.66%
58 | Cc1ccc(C)c(CN2CCC(CNC(=O)CCc3nnc4ccc(N5CCCCC5)nn34)CC2)c1 | inconclusive: 16.4 µM [falling, single point] | –
59 | COc1ccc2nc(Nc3nc(CSc4ccc(C)cc4)cc(=O)[nH]3)nc(C)c2c1 | inconclusive: 29.1 µM [falling, single point] | –
60 | COc1ccccc1Nc1nc(NCC2CCCO2)c2ccccc2n1 (stereo unspecified) | inconclusive: 29.1 µM [falling, single point] | –
61 | COc1ccc(-n2ncc3c(NCCCN4CCOCC4)ncnc32)cc1 | inconclusive: 2.59 µM [activator, full curve] | –
62 | CCCn1c2ccccc2c2cnn(CC(=O)NCC3CCN(Cc4ccc(C)cc4)CC3)c(=O)c21 | inconclusive: 29.1 µM [activator, single point] | –
63 | C=CCNC(=O)N1CCCC(C(=O)c2cccc(OC(C)C)c2)C1 (stereo unspecified) | inconclusive: 2.06 µM [activator, partial curve, poor fit] | –
64 | CCCCOc1cccc(C(=O)Nc2sc3c(c2C(=O)OCC)CCCC3)c1 | – | inactive: -1.4%
65 | CC(=O)Nc1ccc(NC(=O)COC(=O)Cc2cccs2)cc1 | inconclusive: 0.411 µM [falling, full curve, poor fit] | –
66 | O=C1OC(c2ccccc2)=NC12CC2c1ccc(Cl)cc1 (stereo unspecified) | inconclusive: 29.1 µM [falling, single point] | –
